Source: the supplement of paper PMC10849652
The other results are listed elsewhere or left out.

Protein sequences, listed by entry. Tags and fused reporters are not part of them. Lines headed by an entry give the natural chain unless they say otherwise; changes in a name come on top.
UniProt O15042: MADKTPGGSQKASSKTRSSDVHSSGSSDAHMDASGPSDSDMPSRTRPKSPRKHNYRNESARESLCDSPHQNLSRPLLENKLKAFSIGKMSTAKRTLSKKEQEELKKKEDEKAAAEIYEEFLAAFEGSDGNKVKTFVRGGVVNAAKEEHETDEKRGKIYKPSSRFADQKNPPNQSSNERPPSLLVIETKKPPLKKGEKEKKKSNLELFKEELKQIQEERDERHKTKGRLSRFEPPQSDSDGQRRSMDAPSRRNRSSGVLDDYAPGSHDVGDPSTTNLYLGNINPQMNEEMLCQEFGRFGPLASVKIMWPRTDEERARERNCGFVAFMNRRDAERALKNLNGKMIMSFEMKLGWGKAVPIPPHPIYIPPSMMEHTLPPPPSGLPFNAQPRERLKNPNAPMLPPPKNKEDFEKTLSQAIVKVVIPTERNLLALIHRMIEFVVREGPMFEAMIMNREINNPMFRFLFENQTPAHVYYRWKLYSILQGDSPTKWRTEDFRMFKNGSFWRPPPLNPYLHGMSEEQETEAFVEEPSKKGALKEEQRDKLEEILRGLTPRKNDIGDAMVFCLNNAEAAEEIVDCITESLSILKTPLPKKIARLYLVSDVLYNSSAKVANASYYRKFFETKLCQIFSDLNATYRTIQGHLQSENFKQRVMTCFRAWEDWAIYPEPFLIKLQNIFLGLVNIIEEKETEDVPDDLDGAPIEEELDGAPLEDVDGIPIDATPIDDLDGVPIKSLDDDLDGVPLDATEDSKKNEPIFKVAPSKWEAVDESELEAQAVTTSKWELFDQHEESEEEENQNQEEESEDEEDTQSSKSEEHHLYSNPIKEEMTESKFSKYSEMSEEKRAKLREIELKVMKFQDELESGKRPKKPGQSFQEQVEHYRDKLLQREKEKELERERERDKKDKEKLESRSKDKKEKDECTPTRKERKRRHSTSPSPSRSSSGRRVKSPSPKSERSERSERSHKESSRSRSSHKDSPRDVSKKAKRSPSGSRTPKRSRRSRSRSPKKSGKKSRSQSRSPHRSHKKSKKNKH
UniProt Q6ZU65, whole entry, looked up: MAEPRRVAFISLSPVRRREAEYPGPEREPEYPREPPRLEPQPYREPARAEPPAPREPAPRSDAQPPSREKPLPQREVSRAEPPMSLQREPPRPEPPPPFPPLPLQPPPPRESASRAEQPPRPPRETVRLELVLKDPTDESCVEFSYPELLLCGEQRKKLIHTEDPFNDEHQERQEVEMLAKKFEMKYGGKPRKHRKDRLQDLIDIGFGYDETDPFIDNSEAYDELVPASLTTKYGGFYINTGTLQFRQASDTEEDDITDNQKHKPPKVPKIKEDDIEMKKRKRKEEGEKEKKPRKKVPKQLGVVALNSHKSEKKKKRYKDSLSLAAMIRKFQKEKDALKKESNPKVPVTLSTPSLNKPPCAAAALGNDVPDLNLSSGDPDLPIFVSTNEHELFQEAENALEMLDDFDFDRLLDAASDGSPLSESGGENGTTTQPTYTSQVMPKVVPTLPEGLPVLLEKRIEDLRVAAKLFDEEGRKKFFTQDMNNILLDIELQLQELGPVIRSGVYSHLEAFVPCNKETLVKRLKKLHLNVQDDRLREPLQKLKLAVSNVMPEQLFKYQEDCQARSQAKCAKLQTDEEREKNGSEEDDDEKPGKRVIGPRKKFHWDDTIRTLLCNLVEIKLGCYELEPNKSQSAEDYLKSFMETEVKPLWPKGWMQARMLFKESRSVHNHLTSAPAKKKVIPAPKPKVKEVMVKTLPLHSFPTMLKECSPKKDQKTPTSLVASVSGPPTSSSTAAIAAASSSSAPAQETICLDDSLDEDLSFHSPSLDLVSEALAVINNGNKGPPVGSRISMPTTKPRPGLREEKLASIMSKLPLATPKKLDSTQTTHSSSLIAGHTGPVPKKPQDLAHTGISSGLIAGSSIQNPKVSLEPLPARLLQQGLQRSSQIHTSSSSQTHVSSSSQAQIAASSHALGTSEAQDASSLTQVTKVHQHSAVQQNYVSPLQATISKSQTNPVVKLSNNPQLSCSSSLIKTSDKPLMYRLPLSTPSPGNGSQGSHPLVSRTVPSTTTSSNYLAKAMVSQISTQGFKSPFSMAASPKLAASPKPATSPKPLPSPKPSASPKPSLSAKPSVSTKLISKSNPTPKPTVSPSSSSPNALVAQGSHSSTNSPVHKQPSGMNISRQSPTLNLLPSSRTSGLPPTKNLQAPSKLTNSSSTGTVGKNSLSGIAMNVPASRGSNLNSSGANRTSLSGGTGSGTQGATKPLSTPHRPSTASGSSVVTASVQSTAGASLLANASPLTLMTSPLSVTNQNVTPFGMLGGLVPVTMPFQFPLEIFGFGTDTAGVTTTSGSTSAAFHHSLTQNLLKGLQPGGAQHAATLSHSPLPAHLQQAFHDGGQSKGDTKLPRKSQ
UniProt O14530: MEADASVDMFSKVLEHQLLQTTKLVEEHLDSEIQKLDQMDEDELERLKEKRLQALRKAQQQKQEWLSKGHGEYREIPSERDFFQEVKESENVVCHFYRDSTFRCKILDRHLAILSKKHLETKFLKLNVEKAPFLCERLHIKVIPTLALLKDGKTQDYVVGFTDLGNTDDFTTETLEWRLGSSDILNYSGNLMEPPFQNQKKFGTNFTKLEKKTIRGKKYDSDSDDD
UniProt P60604: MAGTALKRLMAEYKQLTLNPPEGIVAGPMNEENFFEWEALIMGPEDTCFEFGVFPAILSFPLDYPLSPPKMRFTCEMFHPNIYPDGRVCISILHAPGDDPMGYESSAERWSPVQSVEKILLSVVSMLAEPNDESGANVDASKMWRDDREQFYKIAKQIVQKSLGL
UniProt O94941: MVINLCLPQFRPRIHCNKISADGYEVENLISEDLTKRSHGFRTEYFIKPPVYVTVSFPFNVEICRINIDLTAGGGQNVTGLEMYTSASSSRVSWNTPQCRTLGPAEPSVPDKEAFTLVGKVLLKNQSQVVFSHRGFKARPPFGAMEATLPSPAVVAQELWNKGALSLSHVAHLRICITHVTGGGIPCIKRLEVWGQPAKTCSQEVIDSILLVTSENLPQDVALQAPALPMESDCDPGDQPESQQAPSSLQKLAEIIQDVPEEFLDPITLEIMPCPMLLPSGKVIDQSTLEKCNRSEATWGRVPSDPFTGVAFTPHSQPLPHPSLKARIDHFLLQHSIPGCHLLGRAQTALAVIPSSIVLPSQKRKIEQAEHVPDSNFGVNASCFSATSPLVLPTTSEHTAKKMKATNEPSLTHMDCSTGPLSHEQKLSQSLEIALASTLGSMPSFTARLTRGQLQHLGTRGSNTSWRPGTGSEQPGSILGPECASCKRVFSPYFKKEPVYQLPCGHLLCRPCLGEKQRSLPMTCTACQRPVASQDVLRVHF
UniProt O75386: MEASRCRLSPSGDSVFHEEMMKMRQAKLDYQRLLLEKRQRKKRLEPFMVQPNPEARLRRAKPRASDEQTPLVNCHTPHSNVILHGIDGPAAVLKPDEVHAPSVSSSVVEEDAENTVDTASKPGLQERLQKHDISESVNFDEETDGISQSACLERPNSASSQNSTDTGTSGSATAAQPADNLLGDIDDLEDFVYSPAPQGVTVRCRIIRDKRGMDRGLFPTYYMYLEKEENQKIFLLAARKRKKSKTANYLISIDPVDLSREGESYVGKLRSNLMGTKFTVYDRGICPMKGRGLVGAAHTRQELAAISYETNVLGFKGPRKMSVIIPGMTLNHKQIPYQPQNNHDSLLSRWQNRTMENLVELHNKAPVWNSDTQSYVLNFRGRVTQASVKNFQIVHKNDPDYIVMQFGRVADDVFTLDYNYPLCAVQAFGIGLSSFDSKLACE
UniProt Q06418: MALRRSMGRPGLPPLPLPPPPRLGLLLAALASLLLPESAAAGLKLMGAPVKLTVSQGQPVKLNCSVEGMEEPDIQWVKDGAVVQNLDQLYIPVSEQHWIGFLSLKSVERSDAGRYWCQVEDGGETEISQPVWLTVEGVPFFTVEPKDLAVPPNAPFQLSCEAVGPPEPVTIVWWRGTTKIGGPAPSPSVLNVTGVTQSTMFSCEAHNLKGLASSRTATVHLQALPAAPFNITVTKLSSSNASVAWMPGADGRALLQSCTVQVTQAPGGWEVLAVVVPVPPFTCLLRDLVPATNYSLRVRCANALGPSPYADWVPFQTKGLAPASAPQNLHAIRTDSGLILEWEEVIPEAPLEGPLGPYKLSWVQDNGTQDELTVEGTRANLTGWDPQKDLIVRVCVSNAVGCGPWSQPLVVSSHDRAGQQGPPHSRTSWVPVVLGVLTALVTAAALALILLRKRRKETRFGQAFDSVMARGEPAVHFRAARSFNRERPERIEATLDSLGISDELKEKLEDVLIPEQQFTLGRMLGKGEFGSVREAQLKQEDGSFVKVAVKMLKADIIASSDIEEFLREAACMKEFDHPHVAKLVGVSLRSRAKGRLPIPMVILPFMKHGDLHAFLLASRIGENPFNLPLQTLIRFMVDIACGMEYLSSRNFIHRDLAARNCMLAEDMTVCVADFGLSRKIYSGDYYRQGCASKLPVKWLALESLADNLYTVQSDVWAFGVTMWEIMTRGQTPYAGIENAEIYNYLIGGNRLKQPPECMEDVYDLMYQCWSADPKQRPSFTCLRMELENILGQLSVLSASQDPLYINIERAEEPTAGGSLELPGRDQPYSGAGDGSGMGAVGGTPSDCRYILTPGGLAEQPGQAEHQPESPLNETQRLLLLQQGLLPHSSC
UniProt P09936: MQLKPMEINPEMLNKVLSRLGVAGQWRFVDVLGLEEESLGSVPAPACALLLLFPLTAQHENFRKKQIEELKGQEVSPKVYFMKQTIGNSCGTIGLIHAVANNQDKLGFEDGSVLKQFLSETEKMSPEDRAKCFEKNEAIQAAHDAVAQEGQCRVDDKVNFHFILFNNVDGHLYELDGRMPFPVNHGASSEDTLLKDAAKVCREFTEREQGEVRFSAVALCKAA
UniProt Q9Y5Z9: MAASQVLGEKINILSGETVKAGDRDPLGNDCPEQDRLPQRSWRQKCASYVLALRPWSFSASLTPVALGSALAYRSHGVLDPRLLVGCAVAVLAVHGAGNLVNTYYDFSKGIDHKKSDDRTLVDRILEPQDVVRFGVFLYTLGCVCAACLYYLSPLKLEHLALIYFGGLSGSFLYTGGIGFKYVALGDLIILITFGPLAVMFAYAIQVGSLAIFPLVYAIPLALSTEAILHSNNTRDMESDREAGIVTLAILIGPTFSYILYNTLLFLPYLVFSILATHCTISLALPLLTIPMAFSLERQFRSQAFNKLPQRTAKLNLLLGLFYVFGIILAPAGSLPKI
UniProt Q9NPG3, whole entry, looked up: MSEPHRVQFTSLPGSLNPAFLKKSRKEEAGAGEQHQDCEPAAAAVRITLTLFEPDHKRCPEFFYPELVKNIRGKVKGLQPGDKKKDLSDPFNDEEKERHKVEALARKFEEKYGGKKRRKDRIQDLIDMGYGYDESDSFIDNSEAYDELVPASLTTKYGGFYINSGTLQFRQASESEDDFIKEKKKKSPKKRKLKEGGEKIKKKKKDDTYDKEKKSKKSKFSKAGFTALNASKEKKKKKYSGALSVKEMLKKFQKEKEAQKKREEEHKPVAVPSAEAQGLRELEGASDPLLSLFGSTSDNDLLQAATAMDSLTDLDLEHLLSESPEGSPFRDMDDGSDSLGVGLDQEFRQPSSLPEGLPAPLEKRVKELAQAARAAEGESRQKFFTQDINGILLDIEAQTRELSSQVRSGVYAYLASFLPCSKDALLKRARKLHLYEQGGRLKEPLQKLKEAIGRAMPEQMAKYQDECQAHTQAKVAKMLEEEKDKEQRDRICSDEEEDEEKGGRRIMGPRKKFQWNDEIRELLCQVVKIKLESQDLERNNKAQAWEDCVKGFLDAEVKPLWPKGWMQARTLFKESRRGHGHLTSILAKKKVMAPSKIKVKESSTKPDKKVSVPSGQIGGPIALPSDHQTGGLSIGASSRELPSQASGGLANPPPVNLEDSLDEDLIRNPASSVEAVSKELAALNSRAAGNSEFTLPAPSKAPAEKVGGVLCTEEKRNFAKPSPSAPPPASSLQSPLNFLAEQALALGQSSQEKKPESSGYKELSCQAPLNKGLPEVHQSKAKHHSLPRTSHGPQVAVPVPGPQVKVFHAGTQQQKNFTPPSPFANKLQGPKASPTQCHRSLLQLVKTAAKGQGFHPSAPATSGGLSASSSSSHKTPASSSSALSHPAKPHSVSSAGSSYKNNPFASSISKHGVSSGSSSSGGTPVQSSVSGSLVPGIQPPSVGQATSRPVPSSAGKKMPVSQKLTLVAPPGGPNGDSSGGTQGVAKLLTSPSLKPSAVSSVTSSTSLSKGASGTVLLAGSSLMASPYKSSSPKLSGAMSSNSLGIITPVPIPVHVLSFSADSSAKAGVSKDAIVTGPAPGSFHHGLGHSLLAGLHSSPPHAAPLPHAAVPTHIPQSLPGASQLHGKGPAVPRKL

How the values were obtained:
Assay in all cases: log2 fold change, soluble protein after heating vs DMSO (PISA); higher = thermal stabilisation; K562 lysate, 10 uM; active = over 0.2 and 3.5 SD of the protein, either way, in both replicates (recomputed)
[1] = compound: CC(C)C1=C2N=C(C=C(N2N=C1)NCC3=CC=CC=C3)NCCCCCCN
Outline: (§1)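 Dounce homogenisation of K562 pellets in PBS pH 7.4 with 1 mM MgCl2 produced a crude extract, used at 1 mg/mL protein. Exposure to 10 μM compound lasted 30 min, and aliquots were then heated for 3 min across 48°C-58°C, pooled and brought to 0.5% NP-40 at 4°C. The supernatant after 21,000xg for 90 min was quantified by TMTpro 16plex LC-MS/MS with channel sums equalised. Duplicate values are given as log-two fold change in thermal stability relative to solvent controls.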

[2] = compound: CC1=C(C2=C(C=C1)C(=O)C3=CC=CC=C3N2CCCN)C
Outline: as §1

vemurafenib = compound: CCCS(=O)(=O)Nc1ccc(F)c(C(=O)c2c[nH]c3ncc(-c4ccc(Cl)cc4)cc23)c1F [vemurafenib]
Outline: as §1

[3] = compound: CC[C@@H]1C(=O)N(C)c2cnc(Nc3ccc(C(=O)NC4CCN(C)CC4)cc3OC)nc2N1C1CCCC1
Outline: as §1

saracatinib = compound: CN1CCN(CCOc2cc(OC3CCOCC3)c3c(Nc4c(Cl)ccc5c4OCO5)ncnc3c2)CC1 [saracatinib]
Outline: as §1

ralimetinib = compound: CC(C)(C)Cn1c(N)nc2ccc(-c3[nH]c(C(C)(C)C)nc3-c3ccc(F)cc3)nc21 [ralimetinib]
Outline: as §1

[4] = compound: CC(C)(O)CC(=O)NCCn1ccc2ncnc(Nc3ccc(Oc4cccc(C(F)(F)F)c4)c(Cl)c3)c21
Outline: as §1

[5] = compound: CC1=C(C(CC(=O)N1)C2=CC=C(C=C2)C(F)(F)F)C(=O)NC3=C(C=C4C(=C3)C=NN4)F
Outline: as §1

[6] = compound: CC1=C(C=C(C=C1)NC(=O)C2=CC(=CC=C2)C(C)(C)C#N)NC3=CC4=C(C=C3)N=CN(C4=O)C
Outline: as §1

[7] = compound: CC1=C(C=C(C=C1)NC(=O)C2=CC(=CC=C2)N(C)C)NC(=O)C3=CC=C(C=C3)O
Outline: as §1

[8] = compound: CCn1c(C(=O)N(C2CC2)C2CC2)cc2c3c(ncn3C)c(Nc3cc(C)n(C)n3)nc21
Outline: as §1

sotrastaurin = compound: CN1CCN(c2nc(C3=C(c4c[nH]c5ccccc45)C(=O)NC3=O)c3ccccc3n2)CC1 [sotrastaurin]
Outline: as §1

[9] = compound: CC(=O)c1cnc2ccc(-c3cc(Cl)c(O)c(Cl)c3)nc2c1N[C@H]1CC[C@H](CN(C)C)CC1
Outline: as §1

[10] = compound: CC1=CC=C(C=C1)SC2=C3C=C(SC3=CN=C2)C(=O)N
Outline: as §1

[11] = compound: CCCS(=O)(=O)Nc1ccc(F)c(C(=O)c2c[nH]c3ncc(Cl)cc23)c1F
Outline: as §1

volasertib = compound: CC[C@@H]1C(=O)N(C)c2cnc(Nc3ccc(C(=O)N[C@H]4CC[C@H](N5CCN(CC6CC6)CC5)CC4)cc3OC)nc2N1C(C)C [volasertib]
Outline: as §1

[12] = compound: CCn1cc(-c2ccnc3[nH]c(-c4cccc(CN(C)C)c4)cc23)c(-c2ccc(NC(=O)N(C)C)cc2)n1
Outline: as §1

[13] = compound: CN1CCC(CNc2ccc3ncc(-c4cccc(OC(F)(F)F)c4)n3n2)CC1
Outline: as §1

ibrutinib = compound: C=CC(=O)N1CCC[C@@H](n2nc(-c3ccc(Oc4ccccc4)cc3)c3c(N)ncnc32)C1 [ibrutinib]
Outline: as §1

barasertib = compound: CCN(CCCOc1ccc2c(Nc3cc(CC(=O)Nc4cccc(F)c4)[nH]n3)ncnc2c1)CCOP(=O)(O)O [barasertib]
Outline: as §1

Target: U2SURP isoform 2 (UniProt O15042)
- log2 fold change [1]: inactive: 0.325
- log2 fold change [2]: inactive: -0.028
- log2 fold change (vemurafenib): inactive: -0.085
- log2 fold change [3]: inactive: 0.155
- log2 fold change (saracatinib): inactive: 0.018

Target: UBN2 (UniProt Q6ZU65)
- log2 fold change (ralimetinib): inactive: -0.063
- log2 fold change [4]: inactive: -0.221
- log2 fold change [1]: inactive: 0.04
- log2 fold change [5]: inactive: -0.145
- log2 fold change [2]: inactive: 0.008
- log2 fold change [6]: inactive: -0.075
- log2 fold change [7]: inactive: -0.162
- log2 fold change (vemurafenib): inactive: 0.035
- log2 fold change [3]: inactive: 0.004
- log2 fold change [8]: inactive: 0.116
- log2 fold change (saracatinib): inactive: -0.071
- log2 fold change (sotrastaurin): inactive: 0.074

Target: TXNDC9 isoform 2 (UniProt O14530)
- log2 fold change [2]: inactive: 0.13
- log2 fold change (saracatinib): inactive: 0.002

Target: UBE2G2 (UniProt P60604)
- log2 fold change [9]: inactive: -0.05
- log2 fold change (ralimetinib): inactive: 0.055
- log2 fold change [4]: inactive: -0.017
- log2 fold change [1]: inactive: 0.13
- log2 fold change [5]: inactive: 0.022
- log2 fold change [2]: inactive: -0.036
- log2 fold change [6]: inactive: 0.009
- log2 fold change [7]: inactive: -0.02
- log2 fold change [10]: inactive: 0.104
- log2 fold change (vemurafenib): inactive: -0.08
- log2 fold change [11]: inactive: 0.047
- log2 fold change [3]: inactive: -0.188
- log2 fold change (volasertib): inactive: 0
- log2 fold change [8]: inactive: 0.099
- log2 fold change [12]: inactive: 0.171
- log2 fold change [13]: inactive: 0.019
- log2 fold change (saracatinib): inactive: 0.086
- log2 fold change (sotrastaurin): inactive: -0.079

Target: UBA2 (UniProt U3KQ93)
- log2 fold change [1]: inactive: -0.009
- log2 fold change [6]: inactive: 0.193
- log2 fold change [3]: inactive: 0.229
- log2 fold change (sotrastaurin): inactive: -0.045

Target: UBAP2, A0A0D9SFI5
- log2 fold change [6]: inactive: 0.035
- log2 fold change (sotrastaurin): inactive: 0.007

Target: UBXN7 (UniProt H7BYF4)
- log2 fold change [9]: inactive: 0.008
- log2 fold change [5]: inactive: -0.068
- log2 fold change [10]: inactive: -0.003
- log2 fold change [11]: inactive: -0.047
- log2 fold change (volasertib): inactive: 0.004

Target: U2AF2 (UniProt K7ELP8)
- log2 fold change [9]: inactive: -0.141
- log2 fold change [5]: inactive: 0.003
- log2 fold change [10]: inactive: 0.081
- log2 fold change (vemurafenib): inactive: -0.206
- log2 fold change [11]: inactive: -0.036
- log2 fold change [3]: inactive: 0.192
- log2 fold change (volasertib): inactive: 0.086
- log2 fold change [12]: inactive: 0.074
- log2 fold change [13]: inactive: -0.17

Target: UBE2M (UniProt M0QX69)
- log2 fold change [12]: inactive: -0.346
- log2 fold change [13]: inactive: 0.409

Target: UBOX5 (UniProt O94941)
- log2 fold change (ralimetinib): inactive: 0.057
- log2 fold change [4]: inactive: 0.052
- log2 fold change [1]: inactive: 0.025
- log2 fold change [5]: inactive: -0.008
- log2 fold change [2]: inactive: -0.028
- log2 fold change [7]: inactive: -0.021
- log2 fold change [8]: inactive: -0.063
- log2 fold change [12]: inactive: 0.06
- log2 fold change [13]: inactive: 0.074
- log2 fold change (saracatinib): inactive: 0.085

Target: TULP3 isoform 2 (UniProt O75386)
- log2 fold change (ralimetinib): inactive: 0.057
- log2 fold change [4]: inactive: -0.042
- log2 fold change [1]: inactive: 0.11
- log2 fold change [5]: inactive: 0.03
- log2 fold change [2]: inactive: -0.006
- log2 fold change [7]: inactive: 0.006
- log2 fold change (vemurafenib): inactive: -0.064
- log2 fold change [8]: inactive: 0.122
- log2 fold change (saracatinib): inactive: -0.017

Target: UBA2 (UniProt K7ESK7)
- log2 fold change [9]: inactive: -0.011
- log2 fold change [10]: inactive: -0.01
- log2 fold change [11]: inactive: -0.041
- log2 fold change (volasertib): inactive: 0.046

Target: UBR4 isoform 4 (UniProt Q5T4S7)
- log2 fold change [9]: inactive: 0.131
- log2 fold change (ralimetinib): inactive: -0.092
- log2 fold change [4]: inactive: -0.201
- log2 fold change [1]: inactive: 0.111
- log2 fold change [2]: inactive: 0.331
- log2 fold change [7]: inactive: -0.02
- log2 fold change [10]: inactive: 0.034
- log2 fold change (vemurafenib): inactive: 0.02
- log2 fold change [11]: inactive: -0.1
- log2 fold change [3]: inactive: -0.096
- log2 fold change (volasertib): inactive: -0.104
- log2 fold change [8]: inactive: 0.077
- log2 fold change (saracatinib): inactive: 0.061

Target: TYRO3 (UniProt Q06418)
- log2 fold change (ibrutinib): inactive: 0.11
- log2 fold change (ralimetinib): inactive: -0.023
- log2 fold change [4]: inactive: -0.026
- log2 fold change [6]: inactive: -0.008
- log2 fold change [7]: inactive: 0.169
- log2 fold change (vemurafenib): inactive: 0.085
- log2 fold change (barasertib): inactive: 0.007
- log2 fold change [3]: inactive: 0.07
- log2 fold change [8]: inactive: -0.057
- log2 fold change [12]: inactive: -0.029
- log2 fold change [13]: inactive: -0.003
- log2 fold change (sotrastaurin): inactive: 0

Target: TYK2 (UniProt P29597)
- log2 fold change [1]: inactive: 0.029
- log2 fold change [6]: inactive: -0.003
- log2 fold change [3]: inactive: 0.111
- log2 fold change (sotrastaurin): inactive: 0.039

Target: UBAP2L (UniProt F8W726)
- log2 fold change [9]: inactive: 0.275
- log2 fold change [6]: active: -0.547
- log2 fold change [10]: inactive: -0.025
- log2 fold change (vemurafenib): inactive: 0.094
- log2 fold change [11]: inactive: -0.031
- log2 fold change (volasertib): inactive: -0.018
- log2 fold change (sotrastaurin): inactive: -0.052

Target: UBAP2 (UniProt Q5JV08)
- log2 fold change [5]: inactive: -0.097

Target: UCHL1 (UniProt P09936)
- log2 fold change [3]: inactive: -0.654

Target: UBIAD1 (UniProt Q9Y5Z9)
- log2 fold change [9]: inactive: -0.012
- log2 fold change (ralimetinib): inactive: 0.01
- log2 fold change [4]: inactive: 0.007
- log2 fold change [1]: inactive: 0.067
- log2 fold change [5]: inactive: -0.159
- log2 fold change [2]: inactive: -0.049
- log2 fold change [6]: inactive: 0.088
- log2 fold change [7]: inactive: 0.012
- log2 fold change [10]: inactive: 0.009
- log2 fold change (vemurafenib): inactive: -0.004
- log2 fold change [11]: inactive: 0.043
- log2 fold change [3]: inactive: 0.005
- log2 fold change (volasertib): inactive: 0.046
- log2 fold change [8]: inactive: -0.083
- log2 fold change [12]: inactive: 0.045
- log2 fold change [13]: inactive: -0.335
- log2 fold change (saracatinib): inactive: -0.036
- log2 fold change (sotrastaurin): inactive: -0.079

Target: UBN1 (UniProt Q9NPG3)
- log2 fold change [9]: inactive: 0.015
- log2 fold change [2]: inactive: 0.03
- log2 fold change [6]: inactive: 0.066
- log2 fold change [10]: inactive: 0.081
- log2 fold change (vemurafenib): inactive: -0.053
- log2 fold change [11]: inactive: -0.069
- log2 fold change [3]: inactive: 0.1
- log2 fold change (volasertib): inactive: 0.005
- log2 fold change [12]: inactive: -0.127
- log2 fold change [13]: inactive: 0.057
- log2 fold change (saracatinib): inactive: 0.04
- log2 fold change (sotrastaurin): inactive: 0.133
